From PMC10853565
No constants are given. Whether binding was seen depends on the method and setting.

Tests used:
[1] = biological target: YfiD fused to fragment T18 (Edwardsiella piscicida); experiment: two-hybrid; bacterial adenylate cyclase two-hybrid (BACTH), same co-transformants grown in LB with IPTG overnight; β-galactosidase activity by ONPG-based colorimetric analysis at 30 °C
[2] = biological target: YfiD fused to fragment T18 (Edwardsiella piscicida); experiment: two-hybrid; bacterial adenylate cyclase two-hybrid (BACTH): YfiD on T18 (pUT18), PARP1 or its pieces on T25 (pKT25), co-transformed into E. coli BTH101; colony colour on LB plates with IPTG and X-Gal, 37 °C, 24-72 h (blue or white)

With “full-length PARP1 fused to fragment T25 (from UniProt Q921K2 1-1014)” the binding [1] was “no binding” and the binding [2] was “no binding”.
